{"source": "PubChem BioAssay AID1259290 (Sanger Institute, 2017)", "aim": "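siRNA screen across the kinome seeking synthetic lethal partners for BYL719, cetuximab or trametinib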 (primary screen)", "cell system": "human SNUC1 colorectal cancer cells", "reagent": "siRNA pool against human genes", "treatment": "anchor drugs BYL719 1 µM, cetuximab 5 µg/ml or trametinib 10 nM, or DMSO vehicle alone", "read-out": "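Cell viability relative to a non-targeting siRNA control, replicate-averaged, as robust z-score for knock-down alone, plus a synergy score for each anchor drug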", "direction": "viability z-score, siRNA alone: higher = more viable cells; low values mean essential gene; viability vs control, siRNA alone: higher = more viable cells", "rule for the call": "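a knock-down without drug scoring a robust z under -3 counts as essential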", "meaning of the calls": "active = essential: knock-down alone cut viability (z below -3); inactive = no clear viability loss with knock-down alone", "note": "The whole screen tested 794 reagents; this is a random part of them. 9 of all reagents (1.1%) count as active. 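Calls rest on knock-down alone, not drug synergy; synergy above 0.15 was grouped apart and does not affect calls.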 No viability above 1 is reported: the scale is capped. Further read-outs or replicates are left out here. Not given: the amount of reagent, the time to read-out."}
{"Target gene":"PRPS2 (GeneID 5634)","viability z-score, siRNA alone":-0.885,"viability vs control, siRNA alone":0.836,"activity call":"inactive"}
{"Target gene":"CHEK1 (GeneID 1111)","viability z-score, siRNA alone":-4.18,"viability vs control, siRNA alone":0.539,"activity call":"active"}
{"Target gene":"STK38L (GeneID 23012)","viability z-score, siRNA alone":-1.16,"viability vs control, siRNA alone":0.812,"activity call":"inactive"}
{"Target gene":"PHKA2 (GeneID 5256)","viability z-score, siRNA alone":0.288,"viability vs control, siRNA alone":0.942,"activity call":"inactive"}
{"Target gene":"GRK3 (GeneID 157)","viability z-score, siRNA alone":0.936,"viability vs control, siRNA alone":1,"activity call":"inactive"}
{"Target gene":"FN3K (GeneID 64122)","viability z-score, siRNA alone":0.555,"viability vs control, siRNA alone":0.966,"activity call":"inactive"}
{"Target gene":"GTF2H1 (GeneID 2965)","viability z-score, siRNA alone":-1.12,"viability vs control, siRNA alone":0.815,"activity call":"inactive"}
{"Target gene":"MAGI3 (GeneID 260425)","viability z-score, siRNA alone":-0.00317,"viability vs control, siRNA alone":0.915,"activity call":"inactive"}
{"Target gene":"ITK (GeneID 3702)","viability z-score, siRNA alone":0.936,"viability vs control, siRNA alone":1,"activity call":"inactive"}
{"Target gene":"LMTK2 (GeneID 22853)","viability z-score, siRNA alone":0.936,"viability vs control, siRNA alone":1,"activity call":"inactive"}
{"Target gene":"STK39 (GeneID 27347)","viability z-score, siRNA alone":0.904,"viability vs control, siRNA alone":0.997,"activity call":"inactive"}
{"Target gene":"MAP3K1 (GeneID 4214)","viability z-score, siRNA alone":-0.864,"viability vs control, siRNA alone":0.838,"activity call":"inactive"}
{"Target gene":"CSNK1D (GeneID 1453)","viability z-score, siRNA alone":0.936,"viability vs control, siRNA alone":1,"activity call":"inactive"}
{"Target gene":"MAPK10 (GeneID 5602)","viability z-score, siRNA alone":0.936,"viability vs control, siRNA alone":1,"activity call":"inactive"}
{"Target gene":"PRKAG1 (GeneID 5571)","viability z-score, siRNA alone":0.936,"viability vs control, siRNA alone":1,"activity call":"inactive"}
{"Target gene":"DLG4 (GeneID 1742)","viability z-score, siRNA alone":0.936,"viability vs control, siRNA alone":1,"activity call":"inactive"}
{"Target gene":"BCR (GeneID 613)","viability z-score, siRNA alone":-0.231,"viability vs control, siRNA alone":0.895,"activity call":"inactive"}
{"Target gene":"NEK1 (GeneID 4750)","viability z-score, siRNA alone":-0.00377,"viability vs control, siRNA alone":0.915,"activity call":"inactive"}
{"Target gene":"ACVR2B (GeneID 93)","viability z-score, siRNA alone":0.936,"viability vs control, siRNA alone":1,"activity call":"inactive"}
{"Target gene":"MED24 (GeneID 9862)","viability z-score, siRNA alone":-1.54,"viability vs control, siRNA alone":0.777,"activity call":"inactive"}
{"Target gene":"BRDT (GeneID 676)","viability z-score, siRNA alone":0.936,"viability vs control, siRNA alone":1,"activity call":"inactive"}
{"Target gene":"EPHB1 (GeneID 2047)","viability z-score, siRNA alone":0.39,"viability vs control, siRNA alone":0.951,"activity call":"inactive"}
{"Target gene":"PRKAG2 (GeneID 51422)","viability z-score, siRNA alone":0.385,"viability vs control, siRNA alone":0.95,"activity call":"inactive"}
{"Target gene":"AK7 (GeneID 122481)","viability z-score, siRNA alone":0.304,"viability vs control, siRNA alone":0.943,"activity call":"inactive"}
{"Target gene":"SOS2 (GeneID 6655)","viability z-score, siRNA alone":0.936,"viability vs control, siRNA alone":1,"activity call":"inactive"}
{"Target gene":"AK3 (GeneID 50808)","viability z-score, siRNA alone":0.598,"viability vs control, siRNA alone":0.97,"activity call":"inactive"}
{"Target gene":"KCNH2 (GeneID 3757)","viability z-score, siRNA alone":-0.0431,"viability vs control, siRNA alone":0.912,"activity call":"inactive"}
{"Target gene":"CDADC1 (GeneID 81602)","viability z-score, siRNA alone":0.674,"viability vs control, siRNA alone":0.976,"activity call":"inactive"}

Laid out differently: results already given
Target gene | viability z-score, siRNA alone | viability vs control, siRNA alone | activity call
EPHB1 (GeneID 2047) | 0.39 | 0.951 | inactive
PRKAG2 (GeneID 51422) | 0.385 | 0.95 | inactive
AK7 (GeneID 122481) | 0.304 | 0.943 | inactive
